Laboratory results: the supplement of paper PMC6331611
± gives the standard deviation of the averaged measurements. In all, about 1,600 compounds were measured (“normalized intracellular growth (luminescence, IQM-normalized) in RAW264.7 macrophages”: median about 1, lowest 2% from about 0.43 on). This is one part of the list.

System: Salmonella enterica serovar Typhimurium SL1344
Assay: normalized intracellular growth (luminescence, IQM-normalized) in RAW264.7 macrophages (fraction of plate interquartile mean); higher = more bacterial growth (less inhibition)
Conditions: 10 µM

Compound	normalized intracellular growth (time point: T3 (3 h))	normalized intracellular growth (time point: Tfinal (~6 h))
CNCCCC12CCC(c3ccccc31)c1ccccc12	0.587 ± 0.078	1.21 ± 0.31
CCCCCC(=O)O[C@]1(C(C)=O)CC[C@H]2[C@@H]3CCC4=CC(=O)CC[C@]4(C)[C@H]3CC[C@@]21C	1.04 ± 0.038	0.973 ± 0.43
CCCCCNC(=N)N/N=C/c1c[nH]c2ccc(OC)cc12	1.05 ± 0.1	1.08 ± 0.037
COc1c(C)c2c(c(O)c1C/C=C(\C)CCC(=O)O)C(=O)OC2	0.937 ± 0.043	0.932 ± 0.048
O=C(O)c1ccc(S(=O)(=O)N(Cl)Cl)cc1	0.9347 ± 0.0043	0.992 ± 0.067
O=C(Oc1ccccc1C(=O)O)c1ccccc1O	0.986 ± 0.018	0.909 ± 0.032
Nc1ccc(C(=O)O)cc1	1.023 ± 0.0022	0.829 ± 0.11
CCN1CCCC(OC(=O)C(c2ccccc2)c2ccccc2)C1 (stereo not drawn)	1.01 ± 0.057	0.964 ± 0.068
NCCNCCNCCN	0.972 ± 0.044	1.2 ± 0.037
CN(C/C=C/c1ccccc1)Cc1cccc2ccccc12	0.953 ± 0.033	1.11 ± 0.035
CN1C(=O)OC(C)(C)C1=O	1 ± 0.034	1.07 ± 0.19
CC(=O)CCCCn1c(=O)c2c(ncn2C)n(C)c1=O	1.05 ± 0.038	1.04 ± 0.054
C[C@H]1O[C@@H](n2cc(F)c(=O)[nH]c2=O)[C@H](O)[C@@H]1O	0.932 ± 0.037	0.828 ± 0.11
CCCCNc1cc(C(=O)O)cc(S(N)(=O)=O)c1Oc1ccccc1	1.07 ± 0.04	0.723 ± 0.32
C[C@H](Cn1cnc2c(N)ncnc21)OCP(=O)(O)O	1.03 ± 0.072	1.08 ± 0.036
CC(C)n1c(/C=C/C(O)CC(O)CC(=O)O)c(-c2ccc(F)cc2)c2ccccc21 (stereo not drawn)	1 ± 0.059	1.27 ± 0.16
CCCCC/C=C/CCC(=O)N[C@H]1[C@H](Oc2c3cc4cc2Oc2ccc(cc2Cl)[C@@H](O[C@@H]2O[C@H](CO)[C@@H](O)[C@H](O)[C@H]2NC(C)=O)[C@@H]2NC(=O)[C@H](NC(=O)[C@@H]4NC(=O)[C@H]4NC(=O)C(Cc5ccc(c(Cl)c5)O3)NC(=O)[C@H](N)c3ccc(O)c(c3)Oc3cc(O)cc4c3)c3ccc(O)c(c3)-c3c(OC4O[C@H](CO)[C@@H](O)[C@H](O)[C@@H]4O)cc(O)cc3[C@@H](C(=O)O)NC2=O)O[C@H](CO)[C@@H](O)[C@@H]1O (stereo partly drawn) [TEICOPLANIN [A(2-1) shown]]	0.955 ± 0.07	1.07 ± 0.065
COc1ccc(C[C@H](N)C(=O)N[C@H]2[C@@H](O)[C@H](n3cnc4c(N(C)C)ncnc43)O[C@@H]2CO)cc1	0.993 ± 0.058	1.05 ± 0.16
[O-][n+]1cccc(CO)c1	0.993 ± 0.047	0.982 ± 0.16
Cc1ccnc(NS(=O)(=O)c2ccc(N)cc2)n1	1.03 ± 0.076	0.986 ± 0.026

Record cards (already shown):
CC(C)n1c(/C=C/C(O)CC(O)CC(=O)O)c(-c2ccc(F)cc2)c2ccccc21 (stereo not drawn) as listed: normalized intracellular growth (time point: T3 (3 h)): 1 ± 0.059; normalized intracellular growth (time point: Tfinal (~6 h)): 1.27 ± 0.16
NCCNCCNCCN as listed: normalized intracellular growth (time point: T3 (3 h)): 0.972 ± 0.044; normalized intracellular growth (time point: Tfinal (~6 h)): 1.2 ± 0.037

The list continues.

Compound	normalized intracellular growth (time point: T3 (3 h))	normalized intracellular growth (time point: Tfinal (~6 h))
NCCCC(O)(P(=O)(O)O)P(=O)(O)O	0.994 ± 0.083	1.12 ± 0.14
Nc1ccc(S(=O)(=O)Nc2cnc3ccccc3n2)cc1	1.05 ± 0.077	1.05 ± 0.098
CNC[C@H](O)[C@@H](O)[C@H](O)[C@H](O)CO	1.04 ± 0.048	0.808 ± 0.19
CC(C)CCCC(C)N (stereo not drawn)	1.07 ± 0.043	1.24 ± 0.043
CC(=O)N[C@@H](CS)C(=O)O	0.924 ± 0.053	1.01 ± 0.013
CC(=O)O[C@H]1C[C@@]2(C)[C@@H](C[C@@H](O)[C@H]3[C@@]4(C)CC[C@@H](O)[C@@H](C)[C@@H]4CC[C@@]32C)/C1=C(\CCC=C(C)C)C(=O)O	0.828 ± 0.069	0.958 ± 0.12
CCN(CC)CCOC(=O)c1ccc(N)cc1	1.04 ± 0.039	1.02 ± 0.061
CC[C@H](C)C(=O)O[C@H]1C[C@@H](C)C=C2C=C[C@H](C)[C@H](CC[C@@H]3C[C@@H](O)CC(=O)O3)[C@H]21	1.07 ± 0.049	1.1 ± 0.11
CCCCC(CC)COC(=O)C(C#N)=C(c1ccccc1)c1ccccc1 (stereo not drawn)	0.995 ± 0.051	1.11 ± 0.093
Nc1c2c(nc3ccccc13)CCCC2	1.02 ± 0.043	0.979 ± 0.033
C=C[C@@]1(C)CC(=O)[C@]2(O)[C@@]3(C)[C@@H](O)CCC(C)(C)[C@@H]3[C@H](O)[C@H](OC(C)=O)[C@@]2(C)O1	1.26 ± 0.025	1.33 ± 0.33
CN(Cc1cnc2nc(N)nc(N)c2n1)c1ccc(C(=O)NC(CCC(=O)O)C(=O)O)cc1 (racemic)	1.05 ± 0.046	0.825 ± 0.024
C/C(=C(\CCOP(=O)(O)O)SC(=O)c1ccccc1)N(C=O)Cc1cnc(C)nc1N	1.08 ± 0.063	1.11 ± 0.22
CC1(C)O[C@@H]2C[C@H]3[C@@H]4CCC5=CC(=O)C=C[C@]5(C)[C@H]4[C@@H](O)C[C@]3(C)[C@]2(C(=O)CO)O1	1.08 ± 0.01	1.19 ± 0.26
CCN(CC)CCOc1ccc2c(c1)C(=O)c1cc(OCCN(CC)CC)ccc1-2	1 ± 0.035	1 ± 0.021
O=C(CCCCCCC(=O)Nc1ccccc1)NO	0.879 ± 0.019	0.893 ± 0.077
CC[C@H]1OC(=O)C[C@@H](O)[C@H](C)[C@@H](O[C@@H]2O[C@H](C)[C@@H](O[C@H]3C[C@@](C)(O)[C@@H](O)[C@H](C)O3)[C@H](N(C)C)[C@H]2O)[C@@H](CC=O)C[C@@H](C)C(=O)/C=C/C(C)=C/[C@@H]1CO[C@@H]1O[C@H](C)[C@@H](O)[C@@H](OC)[C@H]1OC	0.948 ± 0.091	0.932 ± 0.084
CC1(C)S[C@@H]2[C@H](NC(=O)[C@H](C(=O)O)c3ccsc3)C(=O)N2[C@H]1C(=O)O	0.983 ± 0.073	1.02 ± 0.17
CN[C@@H]1[C@@H](O)[C@@H](O[C@@H]2[C@@H](O)[C@H](O[C@H]3OC(CN)=CC[C@H]3N)[C@@H](N)C[C@H]2N)OC[C@]1(C)O	1 ± 0.052	1.04 ± 0.056
